# From PubChem BioAssay AID504444 (National Center for Advancing Translational Sciences (NCATS), 2011)
# The whole screen tested about 360,000 compounds, of which about 7,500 (2.1%) were called active. The shares of active, inactive and inconclusive entries below differ from those in the screen. Calls follow the shape of the dose curve; as a rule, active = well fitted inhibition curve with a large enough effect; inconclusive = small, poorly fitted or top-dose-only effect, or effect the other way; inactive = flat fitted curve, though single readings scatter. A potency beside an inconclusive call is a rough fit, not a confirmed value.
# Assay: Nrf2 qHTS screen for inhibitors; also: nearly all actives have a fitted effect of over 60% in size
# Conditions: A549 ARE-Fluc reporter, luciferase luminescence, 18-24 h; series mostly up to 46 µM
# Method in brief: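 Nrf2 activity is the BugLite luminescence, read 15 min after reagent at room temperature, following CellTiter-Fluor cytotoxicity readout (30 min, 37C). Compound titrations were applied for 18-24 h to 5000 A549 ARE_Fluc cells/well in 5% FBS OPTI-MEM.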
# Potency is read from the fitted curve at half-maximal effect.
row,Structure (SMILES),Potency
1,C/C(=N\NC(=O)c1ccn(C)n1)c1cccc(NC(=O)c2ccc(C)s2)c1,"inconclusive: 0.58 µM [activator, partial curve]"
2,CCc1ccc(CNC(=O)Cn2ccc3cc(S(=O)(=O)N4CCCCCC4)ccc32)cc1,inactive
3,CCc1ccc(S(=O)(=O)/N=C2\C=C(NS(=O)(=O)c3ccccc3)C(=O)c3ccccc32)cc1,"inconclusive: 32.6 µM [falling, single point]"
4,Cc1cccc(NC(=O)Nc2ccc(OCc3ccccc3)cc2)n1,"inconclusive: 29.1 µM [falling, single point]"
5,O=S(=O)(c1ccccc1Cl)N1CCN(c2nc(-c3ccccc3)nc3ccccc23)CC1,"inconclusive: 29.1 µM [activator, single point]"
6,Cc1ccc(C)c(-n2nnnc2SCC(=O)NCCC2=CCCCC2)c1,active: 18.4 µM
7,Cc1ccc(C)c(N2CCN(c3nc4ccccc4c(=O)n3-c3ccc(Cl)cc3)CC2)c1,inactive
8,O=C(c1ccc(F)cc1)C1CCN(C(=O)c2ccccc2)CC1,"inconclusive: 29.1 µM [falling, single point]"
9,O=C(Nc1nccs1)c1cc(-c2ccncc2)nc2ccccc12,"inconclusive: 2.91 µM [activator, single point]"
10,COc1ccc(C2=C(C)C(N3CCC(C(=O)NCc4ccc(C)o4)CC3)=NS2(=O)=O)cc1,"inconclusive: 29.1 µM [activator, single point]"
11,Cc1ccc(Sc2ccc(N3CCCC(C(=O)Nc4ccc(Br)cc4)C3)nn2)cc1 (centres undefined),"inconclusive: 14.6 µM [falling, single point]"
12,CCN(CC)S(=O)(=O)c1ccc(/C=C/C(=O)Nc2ccc(Br)cc2F)cc1,active: 9.2 µM
13,COc1cccc(OC)c1C(=O)N1CCN(Cc2ccccc2C(F)(F)F)CC1,inactive
14,CCC(=O)c1ccc(OCc2ccc(C(=O)OC)cc2)c(OC)c1,"inconclusive: 11.6 µM [activator, partial curve]"
15,CCCNC(=O)COC(=O)/C=C/c1ccc(C)o1,"inconclusive: 4.11 µM [activator, partial curve, poor fit]"
16,CC(C(=O)NC(C)(C)C)N(Cc1cccs1)C(=O)CCN1CCc2ccccc21 (centres undefined),"inconclusive: 11.6 µM [falling, partial curve]"
17,O=C(COc1cccc(Br)c1)Nc1ccc(Cl)c(S(=O)(=O)N2CCOCC2)c1,"inconclusive: 16.4 µM [falling, single point]"
18,CSc1cccc(NC(=S)N(CCCN2CCCC2)Cc2cccn2Cc2ccc(Cl)cc2)c1,"inconclusive: 29.1 µM [falling, single point]"
19,Cc1c(C)n(Cc2ccccc2)c2ccc(C(=O)N3CCN(c4ccccc4F)CC3)cc12,inactive
20,COc1ccc(CN2C(=O)CN=C2Nc2cc(C)ccc2C)cc1,"inconclusive: 14.1 µM [falling, partial curve, poor fit]"
21,COc1cccc(C(=O)Nc2ccc(Oc3cccc(C(F)(F)F)c3)nc2)c1,"inconclusive: 23.1 µM [falling, single point]"
22,O=C(Cn1cnc2ccccc21)Nc1ccc(F)c(F)c1,"inconclusive: 8.2 µM [falling, partial curve, poor fit]"

row,Structure (SMILES),Potency
1,COc1ccc(C(=O)Nc2c(N)nc(SCC(=O)c3ccccc3)[nH]c2=O)cc1,inactive
2,CCN(CC)C(=O)c1cn(CC)c(=O)c2cc(OC)c(OC)cc12,"inconclusive: 3.66 µM [falling, partial curve, poor fit]"
3,O=C1c2ccccc2C(=O)N1c1cccc(O)c1,inactive
4,COc1ccc(C2CC(C(F)(F)F)n3nc(C(=O)NCc4c(C)nn(C)c4C)c(Cl)c3N2)cc1 (centres undefined),active: 20.6 µM
5,COc1ccc(/C(C)=N/OCC(=O)N=Nc2c(O)[nH]c3ccc(Br)cc23)cc1,"inconclusive: 8.2 µM [falling, partial curve]"
6,Cc1nnc(N2C(=O)C(O)=C(C(=O)c3ccco3)C2c2ccc(C(C)(C)C)cc2)s1 (centres undefined),"inconclusive: 8.2 µM [falling, partial curve, poor fit]"
7,O=C(CSc1ncnc2ccccc12)NCCc1ccccc1,"inconclusive: 29.1 µM [falling, partial curve, poor fit]"
8,COc1ccc(CCN=C(N)NS(=O)(=O)c2ccc(C)c(C)c2)cc1OC,"inconclusive: 29.1 µM [falling, single point]"
9,CC(=O)N(C(C)=O)c1cccc(N(Cc2ccccc2)Cc2ccccc2)c1,"inconclusive: 16.4 µM [falling, single point]"
10,N#Cc1c(NC(=S)NC(=O)c2ccccc2)sc2c1CCC2,"inconclusive: 5.8 µM [activator, full curve]"
11,NC(=O)C1CCN(C(=O)Nc2csc3ccccc23)CC1,inactive
12,CCn1nc(C)c(CNC(=O)c2cc(COc3ccccc3SC)on2)c1C,"inconclusive: 16.4 µM [falling, partial curve]"
13,COc1ccc(CCNC(=O)c2cc(S(=O)(=O)N3CCC4(CC3)OCCO4)ccc2F)cc1OC,"inconclusive: 23.1 µM [falling, single point]"
14,CCCCn1c(N)c(N(CCOC)C(=O)c2cc(-c3ccc(C)cc3)nc3ccccc23)c(=O)[nH]c1=O,inactive
15,NNC(=O)c1cc(-c2ccc(N)cc2)nc2ccc(Br)cc12,inactive
16,CCOC(=O)c1ccc(N2C(=O)c3n[nH]c(-c4ccco4)c3C2c2ccc(OC)cc2OC)cc1 (centres undefined),"inconclusive: 20.6 µM [falling, single point]"
17,COc1cccc(-c2nc(S(=O)(=O)c3ccc(C)cc3)c(N3CCCCCC3)o2)c1,"inconclusive: 23.1 µM [falling, single point]"
18,O=C1c2ccccc2C(=O)c2c1cccc2N1CCN(Cc2ccccc2)CC1,"inconclusive: 29.1 µM [falling, single point]"
19,CC1CCC/C(=N\Nc2ccc(Cl)c(C(=O)O)c2)C1 (centres undefined),"inconclusive: 18.4 µM [activator, single point]"
20,O=C(O)c1cccc2c1C(=O)c1cc([N+](=O)[O-])ccc1-2,"inconclusive: 0.411 µM [falling, full curve, poor fit]"
21,CC(=O)c1ccc(NC(=O)Nc2ccc3snnc3c2)cc1,"inconclusive: 1.03 µM [activator, full curve, poor fit]"
22,Cc1cc(C)c(NC(=O)/C(=C/c2ccccc2)c2ccccc2)c(C)c1,"inconclusive: 14.6 µM [falling, partial curve]"

row,Structure (SMILES),Potency
1,CCCn1c(SCc2nc(N)nc(N3CCCCC3)n2)nc2c1c(=O)n(C)c(=O)n2C,"inconclusive: 2.06 µM [falling, partial curve, poor fit]"
2,COc1ccc([N+](=O)[O-])cc1N(CC(=O)Nc1ccccc1C(=O)N1CCCC1)S(C)(=O)=O,"inconclusive: 3.66 µM [activator, partial curve, poor fit]"
3,C/C(=N\NC(=O)c1ccc2c(c1)OCO2)c1ccc(C(=O)O)s1,"inconclusive: 29.1 µM [activator, partial curve, poor fit]"
4,CCN(CC)S(=O)(=O)c1cccc(NC(=O)COC(=O)C2COc3ccccc3O2)c1 (centres undefined),inactive
5,Cc1ccc(C)c(CN2CCC(CNC(=O)Nc3cccc(Cl)c3C)CC2)c1,"inconclusive: 29.1 µM [activator, single point]"
6,Cc1nc2ncnn2c(N2CCCC(C(=O)Nc3ccccc3Br)C2)c1C (centres undefined),"inconclusive: 32.6 µM [falling, single point]"
7,CC1CN(C(=O)Nc2ccc(C(=O)NCc3ccccc3F)cc2)c2ccccc2S1 (centres undefined),inactive
8,COc1ccc(C#Cc2c(-c3ccccc3)n(C)c3ccccc23)cc1,"inconclusive: 23.1 µM [activator, partial curve]"
9,C[C@H]1CN([C@@H](C)CO)C(=O)c2cccc(NC(=O)Nc3ccc(C(F)(F)F)cc3)c2O[C@@H]1CN(C)S(=O)(=O)c1ccc(Cl)cc1,"inconclusive: 29.1 µM [falling, single point]"
10,O=C1N[C@@H](Cc2ccccc2)COC(=O)[C@H](Cc2ccc(F)cc2)C/C=C\C[C@H]1CC(=O)N(CCO)Cc1ccccc1,"inconclusive: 16.4 µM [falling, single point]"
11,Cc1ccccc1OCC(=O)Nc1ccc2oc(-c3ccc(F)cc3)nc2c1,"inconclusive: 2.31 µM [falling, partial curve, poor fit]"
12,COc1ccc2cc3c(N)nn(C(=O)Cc4ccccc4OC)c3nc2c1,"inconclusive: 29.1 µM [falling, single point]"
13,COCc1c(C(=O)Nc2ccc(Cl)cc2F)oc2ccccc12,"inconclusive: 10.3 µM [activator, partial curve]"
14,CC(=O)c1ccc(OCc2cc(C(=O)NC(C)CCn3cccn3)no2)cc1 (centres undefined),"inconclusive: 5.17 µM [activator, full curve]"
15,O=C(N/N=C/c1ccc(OC(=O)c2cccs2)cc1)c1ccc(F)cc1,"inconclusive: 23.1 µM [activator, single point]"
16,CC(=O)Nc1ccc(-c2cc(C(=O)O)c3ccc(C)cc3n2)cc1,inactive
17,S=c1[nH]nc(-c2cccnc2)n1/N=C/C=C/c1ccco1,inactive
18,COC(=O)c1ccc(NC(=O)Nc2ccccc2C)cc1,"inconclusive: 7.31 µM [activator, partial curve]"
19,Cc1ccc(C)c(NC(=O)COC(=O)c2cccc3c2C(=O)c2ccccc2C3=O)c1,active: 13 µM
20,Cc1ccc(-c2nc3ncccc3o2)cc1N,"inconclusive: 5.17 µM [activator, partial curve]"

# 2 compounds picked at random from those above:
row,Structure (SMILES),Potency
10,O=C1N[C@@H](Cc2ccccc2)COC(=O)[C@H](Cc2ccc(F)cc2)C/C=C\C[C@H]1CC(=O)N(CCO)Cc1ccccc1,"inconclusive: 16.4 µM [falling, single point]"
17,S=c1[nH]nc(-c2cccnc2)n1/N=C/C=C/c1ccco1,inactive
